Results reported in paper PMC10850815.
No constants are given. Whether binding was seen depends on the method and setting. In cells and extracts the contact can be indirect. Some results given as binding are weak or reduced against the parent protein; the word gives no strength.

Chains of the proteins cited; added tags and fusions are not shown. Residues count along the entry.
UniProt Q9NZQ7, residues 19-290: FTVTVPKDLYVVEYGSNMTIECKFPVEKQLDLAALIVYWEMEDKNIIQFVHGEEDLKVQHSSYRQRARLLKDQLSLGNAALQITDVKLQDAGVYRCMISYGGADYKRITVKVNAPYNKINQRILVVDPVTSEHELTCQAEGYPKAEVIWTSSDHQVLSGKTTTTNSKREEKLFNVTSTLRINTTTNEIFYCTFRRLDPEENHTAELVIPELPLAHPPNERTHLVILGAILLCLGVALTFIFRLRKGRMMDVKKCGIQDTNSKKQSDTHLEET
UniProt P08670: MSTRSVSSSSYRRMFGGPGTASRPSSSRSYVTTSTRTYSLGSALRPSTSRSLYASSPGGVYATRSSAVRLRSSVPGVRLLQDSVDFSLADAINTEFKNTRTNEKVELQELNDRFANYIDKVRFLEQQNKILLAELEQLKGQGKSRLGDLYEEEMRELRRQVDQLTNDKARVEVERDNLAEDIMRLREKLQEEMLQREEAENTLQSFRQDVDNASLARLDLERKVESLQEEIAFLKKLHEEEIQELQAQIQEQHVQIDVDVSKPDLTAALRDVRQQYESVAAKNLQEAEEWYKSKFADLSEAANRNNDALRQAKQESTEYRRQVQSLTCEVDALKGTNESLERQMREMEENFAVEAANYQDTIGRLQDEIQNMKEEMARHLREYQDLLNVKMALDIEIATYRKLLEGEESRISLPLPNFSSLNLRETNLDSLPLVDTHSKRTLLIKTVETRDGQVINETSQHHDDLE

Target: programmed cell death 1 ligand 1 (PD‐L1) (human (endogenous in PCI 52 and FaDu)) (UniProt Q9NZQ7)
Test: proximity ligation; Duolink PLA in PCI 52 cells fixed with 4% PFA and permeabilized with 0.1% Triton X‐100; anti‐PD‐L1 (rabbit, E1L3N) and anti‐vimentin (mouse, ab8978); cells synchronized in G1, S or G2/M phase with cell cycle inhibitors; IgG isotype controls

Substance: vimentin (from UniProt P08670 1-466)
- binding: binds
